Measurements reported in PubChem BioAssay AID504764 (Drosophila RNAi Screening Center, 2011).
The deposit covers about 22,000 reagents; below is an unselected part of those with a known target gene and a result. Over the whole deposit, 403 (1.9%) were called active. 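Unnormalised raw counts per well; ratio z-scores behind the hit calls and whether each hit raises or lowers signal are not deposited.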 A number with no mark means an inactive call. Reagents against one gene are numbered here. A plus sign joins genes that one reagent is predicted to hit. Reagent sequences are not shown. The record does not give: the amount of reagent.

- Test: 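Genes whose knock-down alters Notch-dependent transcription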 (primary screen)
- Cells: Drosophila Kc167 cells
- Reagents: long dsRNA against Drosophila genes
- Duration: about 5 days (4 days dsRNA, then 24 h after transfection)
- Treatment: transfection of constitutively active membrane-tethered Notch lacking the extracellular domain, read 24 h later
- Detection: 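Firefly luciferase from an E(spl)m3 reporter with active Notch, plus control-promoter and uninduced reporter wells for normalisation; unnormalised counts, duplicate wells a and b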
- Direction: induced reporter light, run 1, well a and induced reporter light, run 1, well b: higher = more light from the Notch target reporter with active Notch; control promoter light, run 1, well a and control promoter light, run 1, well b: higher = more light from the viral control promoter (cell number, transfection, viability); uninduced reporter light, run 1, well a: higher = more light from the Notch target reporter without active Notch
- Hit rule: 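Hit if the duplicate-averaged log2 ratio of induced to control-promoter light gives a plate-wise z beyond ±2, or induced to uninduced beyond ±1.8; weak-control or discordant-duplicate wells dropped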
- Meaning of the calls: active = modifier hit (raised or lowered Notch signal); inactive = not a hit

| Target gene | dsRNA no. | induced reporter light, run 1, well a | induced reporter light, run 1, well b | control promoter light, run 1, well a | control promoter light, run 1, well b | uninduced reporter light, run 1, well a |
| --- | --- | --- | --- | --- | --- | --- |
| whd (withered) | 1 | 1.50e5 | 1.61e5 | 1.56e5 | 1.38e5 | 13720 |
| Rubicon | 1 | 1.21e5 | 1.17e5 | 2.47e5 | 1.65e5 | 8935 |
| Mical (Molecule interacting with CasL) | 1 | 96675 | 1.05e5 | 81735 | 97775 | 5380 |
| Mical (Molecule interacting with CasL) | 2 | 1.19e5 | 87365 | 1.29e5 | 1.10e5 | 8180 |
| Mical (Molecule interacting with CasL) | 3 | 1.04e5 | 95915 | 77390 | 70830 | 5710 |
| Mical (Molecule interacting with CasL) | 4 | 71025 | 88095 | 73905 | 47265 | 7545 |
| fzy (fizzy) | 1 | 63710 | 65425 | 82070 | 83465 | 7560 |
| DhpD (Dihydropterin deaminase) | 1 | 1.37e5 | 1.01e5 | 80880 | 79300 | 8135 |
| shn (schnurri) | 1 | 1.89e5 | 1.82e5 | 2.44e5 | 3.36e5 | 20750 |
| shn (schnurri) | 2 | 1.21e5 | 1.31e5 | 1.30e5 | 1.36e5 | 12020 |
| AANATL4 (Arylalkylamine N-acetyltransferase-like 4) | 1 | 37370 | 38795 | 39845 | 42340 | 3632 |
| spo (spook) | 1 | 2.65e5 | 2.27e5 | 2.75e5 | 1.92e5 | 11260 |
| CG32532 | 1 | 82480 | 88685 | 79120 | 1.23e5 | 7750 |
| CG32532 | 2 | 1.18e5 | 1.03e5 | 1.11e5 | 1.18e5 | 10630 |
| CG32532 | 3 | 1.11e5 | 85640 | 1.28e5 | 1.17e5 | 11445 |
| CG11664 | 1 | 1.26e5 | 1.08e5 | 1.65e5 | 1.97e5 | 9055 |
| Sry-delta (Serendipity delta) | 1 | 68035 | 55450 | 63665 | 61180 | 5065 |
| CG32733 (retired record) + CG32797 | 1 | 73300 | 78260 | 99095 | 1.19e5 | 7385 |
| Rpt3 (Regulatory particle triple-A ATPase 3) | 1 | 1.01e5 | 92845 | 1.67e5 | 1.34e5 | 7020 |
| alpha4GT1 (alpha1,4-galactosyltransferase 1) | 1 | 2.73e5 | 2.51e5 | 2.36e5 | 2.08e5 | 23490 |
| morgue (modifier of rpr and grim, ubiquitously expressed) | 1 | 2.26e5 | 2.17e5 | 1.77e5 | 2.11e5 | 18115 |

Part of the list above, set out differently.
Target gene | dsRNA no. | induced reporter light, run 1, well a | induced reporter light, run 1, well b | control promoter light, run 1, well a | control promoter light, run 1, well b | uninduced reporter light, run 1, well a
CG32532 | 2 | 1.18e5 | 1.03e5 | 1.11e5 | 1.18e5 | 10630
CG32532 | 3 | 1.11e5 | 85640 | 1.28e5 | 1.17e5 | 11445
CG11664 | 1 | 1.26e5 | 1.08e5 | 1.65e5 | 1.97e5 | 9055
Sry-delta (Serendipity delta) | 1 | 68035 | 55450 | 63665 | 61180 | 5065
CG32733 (retired record) + CG32797 | 1 | 73300 | 78260 | 99095 | 1.19e5 | 7385
Rpt3 (Regulatory particle triple-A ATPase 3) | 1 | 1.01e5 | 92845 | 1.67e5 | 1.34e5 | 7020
alpha4GT1 (alpha1,4-galactosyltransferase 1) | 1 | 2.73e5 | 2.51e5 | 2.36e5 | 2.08e5 | 23490

The list goes on:
| Target gene | dsRNA no. | induced reporter light, run 1, well a | induced reporter light, run 1, well b | control promoter light, run 1, well a | control promoter light, run 1, well b | uninduced reporter light, run 1, well a |
| --- | --- | --- | --- | --- | --- | --- |
| CG11608 | 1 | 8185 | 9270 | 10765 | 12350 | 3355 |
| sdk (sidekick) | 1 | 41000 | 43285 | 56115 | 58715 | 2882 |
| Slc45-1 | 1 | 1.77e5 | 1.34e5 | 1.61e5 | 1.49e5 | 7920 |
| Cyp28c1 (Cytochrome P450 28c1) | 1 | 1.07e5 | 1.16e5 | 2.20e5 | 2.39e5 | 8160 |
| CG13982 | 1 | 1.76e5 | 2.04e5 | 1.77e5 | 1.76e5 | 9135 |
| CG14764 | 1 | 73610 | 87795 | 98755 | 1.05e5 | 5730 |
| CG14764 | 2 | 1.25e5 | 1.51e5 | 93400 | 95415 | 10310 |
| CG14764 | 3 | 2.45e5 | 2.24e5 | 2.43e5 | 2.18e5 | 18665 |
| CG7069 | 1 | 1.73e5 | 1.82e5 | 2.27e5 | 2.34e5 | 14825 |
| fid (fire dancer) | 1 | 1.09e5 | 83350 | 83220 | 73770 | 10732 |
| fid (fire dancer) | 2 | 1.04e5 | 95180 | 1.35e5 | 1.23e5 | 10705 |
| CG10431 | 1 | 1678 | 1378 | 2120 | 1905 | 130 |
| Gos28 (Golgi SNARE, 28 kDa) | 1 | 1.97e5 | 1.80e5 | 1.61e5 | 1.74e5 | 13315 |
| CG14125 | 1 | 1.59e5 | 1.66e5 | 1.89e5 | 1.62e5 | 8365 |
| pav (pavarotti) | 1 | 95395 | 90925 | 1.85e5 | 1.56e5 | 7195 |
| CG13193 | 1 | 95850 | 96870 | 1.18e5 | 97405 | 9225 |
| Sec61gamma (Sec61 gamma subunit) | 1 | 69920 | 64665 | 84250 | 92155 | 8075 |
| RpS15Ab + RpS15Aa | 1 | 9855 | 9305 | 13815 | 11935 | 710 |
| RpS15Ab + RpS15Aa | 2 | 9095 | 11345 | 14615 | 14505 | 440 |
| kipf (kipferl) | 1 | 93245 | 93300 | 1.07e5 | 79575 | 7260 |
| Sprn (Spermitin) | 1 | 1.91e5 | 1.51e5 | 2.31e5 | 1.55e5 | 7255 |
| Art4 (Arginine methyltransferase 4) | 1 | 40840 | 52535 | 56770 | 39530 | 3132 |
| SP1029 | 1 | 1.41e5 | 1.42e5 | 1.67e5 | 1.48e5 | 11750 |
| CG6276 | 1 | 97655 | 1.12e5 | 67440 | 66470 | 8170 |
| CG5645 | 1 | 2.30e5 | 1.75e5 | 1.75e5 | 1.11e5 | 19220 |
| Start1 | 1 | 78245 | 92015 | 57635 | 74935 | 5225 |
| Ssl (Suppressor of Stellate-like) | 1 | 1.83e5 | 1.47e5 | 2.09e5 | 1.78e5 | 12565 |
| CG14244 | 1 | 1.48e5 | 1.66e5 | 1.96e5 | 2.24e5 | 15315 |
| CG8927 | 1 | 1.78e5 | 2.13e5 | 1.46e5 | 1.53e5 | 17355 |
| CG8586 | 1 | 1.93e5 | 2.18e5 | 1.84e5 | 2.00e5 | 13045 |
| Rab3-GEF (Rab3 GDP-GTP exchange factor) | 1 | 87855 | 79525 | 1.05e5 | 73340 | 12055 |
| Rab3-GEF (Rab3 GDP-GTP exchange factor) | 2 | 78890 | 89570 | 86160 | 87080 | 15075 |
| Rab3-GEF (Rab3 GDP-GTP exchange factor) | 3 | 14355 | 10175 | 10165 | 9650 | 5060 |
| kat-60L1 (katanin p60-like 1) | 1 | 1.38e5 | 1.29e5 | 92470 | 78525 | 11575 |
| CG10804 | 1 | 1.70e5 | 1.85e5 | 2.28e5 | 2.22e5 | 12255 |
| CG31145 | 1 | 1.93e5 | 2.02e5 | 2.10e5 | 2.49e5 | 16755 |
| CG31145 | 2 | 1.33e5 | 1.42e5 | 1.64e5 | 1.45e5 | 12342 |
| CG31145 | 3 | 6865 | 6825 | 6955 | 4770 | 2030 |
| CG31145 | 4 | 2.22e5 | 1.50e5 | 2.19e5 | 1.93e5 | 14800 |
| mRpS29 (mitochondrial ribosomal protein S29) | 1 | 1.60e5 | 1.57e5 | 1.21e5 | 1.25e5 | 11850 |
| Ufd1 (Ubiquitin fusion-degradation 1-like) | 1 | 1.05e5 | 1.01e5 | 67995 | 29440 | 7390 |
| CG32599 | 1 | 1.90e5 | 1.67e5 | 1.67e5 | 1.95e5 | 11732 |
| CG9920 | 1 | 2.32e5 | 2.29e5 | 1.78e5 | 2.00e5 | 17242 |
